Measurements reported in PubChem BioAssay AID2685 (National Center for Advancing Translational Sciences (NCATS), 2010).
About 2,100 (0.66%) of roughly 320,000 compounds were called active. Inconclusive results, whose numbers are uncertain, are shown with a selection of clear calls. Calls come from the whole dose curve; as a rule, active = well fitted inhibition curve with a large enough effect in the signal ratio, with a control signal flat (not every such curve was filed as active); inconclusive = small, poorly fitted or top-dose-only effect, or effect the other way, or a change in a side signal; inactive = flat fitted curve, though single readings scatter; the % refers to the signal ratio. Where the call is inconclusive, the potency comes from a doubtful curve fit.

assay: qHTS Assay for Lipid Storage Modulators in Drosophila S3 Cells; details: BODIPY lipid droplet fluorescence, 18-24 h, cells fed with added oleic acid; lipid storage change, negative = inhibition: at 46.1 µM (top of the series) unless noted
In short: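 Laser-scanning cytometry quantifies lipid droplet accumulation (500–530 nm total intensity; droplet/cell object ratio) in oleic acid-fed (400 uM added) Drosophila S3 cells treated with a concentration series. 20 uM Triacsin C defined 100% inhibition.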
% is set by controls: 0 for no effect and ±100 for the full control effect; potency is the fitted concentration of half-maximal effect.

Compound | Potency | lipid storage change, negative = inhibition
O=C(NCc1ccco1)C1CCN(C(=O)c2ccc(Cl)cc2)CC1 | inconclusive: 0.651 µM [falling, partial curve, poor fit] | 
CCOC(=O)c1cc(-c2ccco2)nc2c1c(C)nn2CCC#N |  | inconclusive: -0.168%
CC(=O)c1cccc(NC(=O)c2ccc3ccccc3c2)c1 |  | inconclusive: -21.7%
Cc1ccc(-n2nc(C)c(C(=O)N3CCN(C(=O)c4ccco4)CC3)c2-n2cccc2)cc1 | active: 16.4 µM | 
CCCn1c(SCC(=O)Nc2cccc(C)n2)nnc1-c1ccco1 |  | inconclusive: 35%
COc1cc(NC(=O)c2cc([N+](=O)[O-])ccc2NC(=O)CNC2CCCCC2C)cc(OC)c1 (stereo unspecified) |  | inconclusive: 3.69%
COc1ccc(-c2nnc(SCC(=O)c3cccs3)n2-c2ccc(Cl)cc2)cc1 |  | inconclusive: 32.4%
CCN(C(=O)COC(=O)CSc1ccccc1)c1c(N)n(Cc2ccccc2)c(=O)[nH]c1=O |  | inconclusive
CC(NC(=O)CN1C(=O)NC(C)(c2cccc3ccccc23)C1=O)c1ccccc1 (stereo unspecified) |  | inconclusive: 38.8%
COc1ccc(/C=N/NC(=S)Nc2ccccc2)cc1COc1ccc(Br)cc1 |  | inconclusive: 11.9%
CCCCSc1nc(C)c(C(C)=O)cc1C#N | inconclusive: 32.6 µM [falling, single point] | 
Cc1c(F)cccc1NS(=O)(=O)c1ccc2c(c1)NC(=O)CO2 | inconclusive: 6.51 µM [falling, single point] | 
Cc1oc(-c2ccc(Cl)cc2)nc1CN1CCCC(C(=O)NCc2cccnc2)C1 (stereo unspecified) |  | inconclusive: 4.18%
CC(C(=O)Nc1ccc(Cl)cc1)N1C(=O)NC2(CCCC2)C1=O (stereo unspecified) |  | inconclusive: -5.08%
CCOc1ccc(NC(=O)COc2ccccc2)c([N+](=O)[O-])c1 |  | inconclusive: -11.6%
N#C/C(=C\c1ccccc1)C(=O)Nc1ccccn1 |  | inconclusive: -6.33%
Nc1c(-c2ccccc2)c(CN2CCOCC2)nn1-c1ccc(C(=O)O)cc1 |  | inconclusive: 7.22%
CN(C)Cc1c(C(=O)N/N=C/c2cccc(OCc3ccc(F)cc3)c2)nnn1-c1nonc1N | inconclusive: 29.1 µM [activator, single point] | 
COc1ccc(C(=O)C2CCCN(C(=O)c3ccc(CSC)o3)C2)cc1F (stereo unspecified) | inconclusive: 23.1 µM [falling, single point] | 
CCCCCOc1ccc(CSCCNC(=S)Nc2ccccc2)cc1 |  | inconclusive: -39.6%
COc1ccc(OC)c(-n2c(-c3cc(-c4ccc(F)cc4)n[nH]3)n[nH]c2=S)c1 |  | inconclusive: -23.5%
